Screen size: about 360,000 compounds; about 7,500 (2.1%) were called active. Inconclusive results, whose numbers are uncertain, are shown with a selection of clear calls. Calls come from the whole dose curve; as a rule, active = well fitted inhibition curve with a large enough effect; inconclusive = small, poorly fitted or top-dose-only effect, or effect the other way; inactive = flat fitted curve, though single readings scatter. A potency beside an inconclusive call is a rough fit, not a confirmed value.
Experiment: Nrf2 qHTS screen for inhibitors; note: nearly all actives have a fitted effect of over 60% in size
Conditions: A549 ARE-Fluc reporter, luciferase luminescence, 18-24 h; activity change, negative = inhibition: at 46 µM (top of the series)
Method in brief: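 A549 ARE_Fluc cells, 5000/well, 5% FBS OPTI-MEM; compounds in dose-response, 18-24 h at 37 °C/5% CO2; CellTiter-Fluor viability read (Ex 405/Em 525), then BugLite luciferase luminescence = Nrf2 activity.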
% is set by controls: 0 for no effect and ±100 for the full control effect; potency is the fitted concentration of half-maximal effect.

Compound | Potency | activity change, negative = inhibition
CCCCCCCN1N=C(C)C(C(=O)c2ccccc2)C1=O (stereo not drawn) | inconclusive: 18.4 µM [falling, single point] | –
O=C(Nc1ccccn1)c1ccc(C(=O)c2ccccc2)cc1 | inconclusive: 1.46 µM [activator, full curve] | –
COc1cccc(/C=N/NC(=O)c2cccs2)c1 | inconclusive: 11.6 µM [activator, partial curve] | –
CCn1cnc2sc(C(=O)Oc3cccc(C)c3)c(C)c2c1=O | inconclusive: 32.6 µM [activator, partial curve, poor fit] | –
Cc1cccc(NC(=O)c2ccc(S(=O)(=O)N(C)c3ccccc3)cc2)n1 | inconclusive: 29.1 µM [falling, single point] | –
Cn1c(=O)n(C)c2cc(/C=N/NC(=O)c3ccc(Cl)cc3Cl)ccc21 | inconclusive: 0.146 µM [falling, partial curve, poor fit] | –
Cc1ccc2nc(NC(=O)CCCC(=O)O)sc2c1 | inconclusive: 6.51 µM [falling, full curve] | –
O=C(C1CN(C(=O)c2cc3cc(Cl)ccc3o2)c2ccccc2O1)N1CCCCC1 (stereo not drawn) | inconclusive: 18.4 µM [falling, single point] | –
CCc1nnc(NC(=O)c2nc(S(=O)(=O)Cc3cccc(C)c3)ncc2Cl)s1 | active: 23.1 µM | –
Nc1ccc2nc(-c3cccnc3)[nH]c2c1 | inconclusive: 9.2 µM [activator, partial curve] | –
CCCCCN(C(=O)CCC(=O)OCc1ccc(C(C)(C)C)cc1)c1c(N)n(CCCC)c(=O)[nH]c1=O | active: 13 µM | –
Cn1c(CN2CCCCC2)nc2cc(NC(=O)c3cccc(Br)c3)ccc21 | active: 1.3 µM | –
CCCC(=O)c1ccc(N2CCN(S(=O)(=O)c3ccc(C)cc3)CC2)c(F)c1 | inconclusive: 32.6 µM [falling, single point] | –
COc1ccc(-n2nnnc2SCC(=O)N2CCOCC2)cc1 | inconclusive: 6.51 µM [activator, partial curve, poor fit] | –
NC(=O)CSc1oc(-c2ccco2)nc1S(=O)(=O)c1ccc(Br)cc1 | inactive | –
Cc1cc(C)nc(N/N=C/c2ccccc2OCc2cccc(Br)c2)n1 | inconclusive: 32.6 µM [falling, partial curve, poor fit] | –
Cc1ccccc1Oc1ccc2c(c1)[C@@H]1C[C@H](N(C)C(=O)c3ccc(C#N)cc3)[C@H]([C@H](C)O)C(=O)N1CC2 | inconclusive: 13 µM [falling, partial curve] | –
CCCc1cc(=O)oc2cc(C)cc(OCC(=O)NCC(O)c3ccccc3)c12 (stereo not drawn) | – | inactive: 0.329%
CCC(C(=O)Nc1ccccc1C(=O)OC)n1c(C)c2cnn(-c3ccccc3)c(=O)c2c1C (stereo not drawn) | inconclusive: 29.1 µM [falling, single point] | –
O=[N+]([O-])c1ccc2oc(-c3ccccc3)nc2c1 | inconclusive: 6.51 µM [activator, partial curve] | –
Cc1onc(-c2c(Cl)cccc2Cl)c1C(=O)N1CCN(c2ccc(F)cc2)CC1 | inconclusive: 29.1 µM [falling, single point] | –
Cc1cc2n(n1)C(c1sccc1C)Nc1ccccc1-2 (stereo not drawn) | – | inactive: 4.6%
CCCCC(=O)Nc1nc2c(OC)cc([N+](=O)[O-])cc2s1 | inconclusive: 20.6 µM [falling, partial curve] | –

Compound | Potency | activity change, negative = inhibition
COc1ccc(/C(N)=N/OC(=O)c2cccc([N+](=O)[O-])c2)cc1 | inconclusive: 2.31 µM [activator, full curve] | –
COc1cc(OC)cc(C(=O)N2CCN(C3CCCCC3)CC2)c1 | – | inactive: -5.01%
Cc1ccccc1C1CC(=O)Oc2cc(O)ccc21 (stereo not drawn) | – | inactive: 7.63%
COc1cccc(N2C(=O)C(CC(=O)Nc3ccc(Cl)cc3)N(Cc3ccc4c(c3)OCO4)C2=O)c1 (stereo not drawn) | inconclusive: 16.4 µM [falling, partial curve, poor fit] | –
CCOC(=O)c1nc2ccccc2c(=O)[nH]1 | inconclusive: 18.4 µM [activator, partial curve] | –
COc1cccc(/C=C/C(=O)Nc2ccc3nc4n(c(=O)c3c2)CCCC4)c1OC | inconclusive: 2.31 µM [falling, full curve] | –
Cc1cccc(N2CCN(C(=O)C3CCCN(S(=O)(=O)c4cccc5nsnc45)C3)CC2)c1C (stereo not drawn) | inconclusive: 23.1 µM [falling, partial curve] | –
CC1=CC(C)=Nc2ccccc2N1 | inconclusive: 16.4 µM [activator, single point] | –
O=C(Nc1ccccc1N1CCOCC1)c1ccccc1NS(=O)(=O)c1ccc(F)c(F)c1 | active: 20.6 µM | –
Cc1c(-n2c(SCC(=O)O)nnc2-c2ccccc2Cl)c(=O)n(-c2ccccc2)n1C | – | inactive: 7.65%
O=S(=O)(c1ccc(Cl)nc1)N(Cc1ccccc1)Cc1ccccc1 | – | inactive: 4.75%
COc1ccc(C(=O)N/C(=C/c2cccs2)c2nc3ccccc3[nH]2)cc1OC | – | inactive: 16.5%
CC(C)NC(=O)N1CC(c2ccccc2)C(c2ccc(Cl)cc2)=N1 (stereo not drawn) | inconclusive: 29.1 µM [falling, single point] | –
Cc1cc(C(F)F)nn1CC(=O)NC1CCCC1 | – | inactive: 0.836%
Nc1[nH]c(=S)nc2nc(-c3ccccc3)c(-c3ccccc3)nc12 | inconclusive: 4.61 µM [falling, partial curve] | –
CN(Cc1ccccc1)C(=O)c1cccc(NC(=O)Cc2ccc(NC(=O)C3CCCN(C(=O)C4CCCCC4)C3)cc2)c1 (stereo not drawn) | inconclusive: 29.1 µM [falling, single point] | –
Clc1ccc(COn2nnc3ccccc32)c(Cl)c1 | inconclusive: 18.4 µM [activator, partial curve] | –
COC(=O)c1cc(=O)n(Cc2ccc(OC)c(OC)c2)c(=Nc2ccc(F)cc2)s1 | inconclusive: 29.1 µM [falling, single point] | –
CCN(c1ccccc1)S(=O)(=O)c1cc(-c2onc(C)c2C)ccc1OC | inconclusive: 23.1 µM [falling, single point] | –
CC(C)(C)C(=O)/C=c1\[nH]c(=O)/c(=C\c2ccc(C#N)cc2)s1 | inconclusive: 13 µM [falling, partial curve] | –
O=C(CSc1nnc(-c2ccccc2)n1Cc1ccco1)NCc1ccc2c(c1)OCO2 | – | inactive: -22.8%
COc1c(C)cc(C(=O)C2CCCN(S(=O)(=O)N(C)C)C2)cc1C (stereo not drawn) | inconclusive: 20.6 µM [falling, single point] | –
O=C(COc1ccc(Br)cc1Cl)NC(=O)NC1CCCC1 | inconclusive: 13 µM [activator, partial curve] | –

Pulled by compound from the list above:
Compound | Potency | activity change, negative = inhibition
CCN(c1ccccc1)S(=O)(=O)c1cc(-c2onc(C)c2C)ccc1OC | inconclusive: 23.1 µM [falling, single point] | –
COc1ccc(/C(N)=N/OC(=O)c2cccc([N+](=O)[O-])c2)cc1 | inconclusive: 2.31 µM [activator, full curve] | –

Further structures

Compound | Potency | activity change, negative = inhibition
C=CCN1C(=O)C(Cc2cccc(Cl)c2)S/C1=N/N=C/c1ccco1 (stereo not drawn) | inconclusive: 4.11 µM [falling, full curve, poor fit] | –
O=C(CC(=O)N/N=C\c1cccc(Cl)c1Cl)NCc1ccccc1 | inconclusive: 23.1 µM [falling, single point] | –
Cc1c2cnn(CC(=O)N3CCN(c4ccccc4)CC3)c(=O)c2c(C)n1Cc1ccc(F)cc1 | inconclusive: 16.4 µM [falling, single point] | –
CCOc1cccc(-c2nn3c(-c4cc(C)[nH]n4)nnc3s2)c1 | inconclusive: 0.517 µM [falling, full curve, poor fit] | –
O=C(/C=C/c1ccc(Cl)c(Cl)c1)n1cccn1 | inconclusive: 29.1 µM [falling, single point] | –
O=C(c1cc(-c2ccc(Cl)cc2)on1)N1CCCC1 | inconclusive: 29.1 µM [activator, single point] | –
Cc1cccc2[nH]c(SCC(=O)N3CCOCC3)nc12 | inconclusive: 0.58 µM [activator, full curve, poor fit] | –
CC(C)c1ccc(NC(=O)Cn2nnc(C(=O)NCc3ccco3)c2N)cc1 | – | inactive: 10.7%
Nc1ncc(Br)cc1N=Cc1ccccc1 | inconclusive: 23.1 µM [activator, partial curve] | –
CCOc1ccc(S(=O)(=O)N2CCN(c3cc(Cl)ccc3Cl)CC2)c2ccccc12 | inconclusive: 0.0046 µM [falling, full curve, poor fit] | –
CC12CCC(C(=O)N/N=C/c3ccc(O)cc3O)(OC1=O)C2(C)C (stereo not drawn) | inconclusive: 2.31 µM [falling, full curve] | –
O=C(Nc1ccc2c(c1)CCC2)c1cc2ccccc2o1 | inconclusive: 3.66 µM [activator, full curve] | –
O=C(Nc1ccccc1)Nc1ccc2c(c1)CCC2 | inconclusive: 6.51 µM [activator, partial curve] | –
Cc1ccc2nc(NC(=O)Cc3cccs3)sc2c1 | inconclusive: 2.06 µM [activator, partial curve, poor fit] | –
CC(=O)Nc1ncnc2c1c(-c1ccc(Cl)cc1)nn2C(C)(C)C | – | inactive: -28.8%
COc1ccc2cc(C(=O)N/N=C/c3sc4ccccc4c3O)ccc2c1 | inconclusive: 29.1 µM [falling, single point] | –
O=C(CNC(=O)c1ccccc1)NCC(=O)OCC(=O)c1ccc2ccccc2c1 | – | inactive: -5.75%
O=C(CSc1ccc(-c2ccccn2)nn1)N1CCCCC1 | inconclusive: 11.6 µM [activator, partial curve] | –
Cc1ccc(S(=O)(=O)NCCC(=O)N2CCN(C/C=C/c3ccccc3)CC2)cc1 | inconclusive: 14.6 µM [falling, single point] | –
Cc1cc(C(=O)COC(=O)c2ccc(Cl)c(S(N)(=O)=O)c2)c(C)n1CC1CCCO1 (stereo not drawn) | inconclusive: 13 µM [activator, partial curve] | –
CCN1CCN(C(C)C(=O)NC2CCCCC2)CC1 (stereo not drawn) | – | inactive: 0.161%
O=C(Nc1nnc(SCC(=O)N2CCCc3ccccc32)s1)c1ccc2ccccc2c1 | inconclusive: 29.1 µM [falling, single point] | –

Filtered by structure: the compounds so far containing a Cl atom (17)
Compound | Potency | activity change, negative = inhibition
Cn1c(=O)n(C)c2cc(/C=N/NC(=O)c3ccc(Cl)cc3Cl)ccc21 | inconclusive: 0.146 µM [falling, partial curve, poor fit] | –
O=C(C1CN(C(=O)c2cc3cc(Cl)ccc3o2)c2ccccc2O1)N1CCCCC1 (stereo not drawn) | inconclusive: 18.4 µM [falling, single point] | –
CCc1nnc(NC(=O)c2nc(S(=O)(=O)Cc3cccc(C)c3)ncc2Cl)s1 | active: 23.1 µM | –
Cc1onc(-c2c(Cl)cccc2Cl)c1C(=O)N1CCN(c2ccc(F)cc2)CC1 | inconclusive: 29.1 µM [falling, single point] | –
COc1cccc(N2C(=O)C(CC(=O)Nc3ccc(Cl)cc3)N(Cc3ccc4c(c3)OCO4)C2=O)c1 (stereo not drawn) | inconclusive: 16.4 µM [falling, partial curve, poor fit] | –
Cc1c(-n2c(SCC(=O)O)nnc2-c2ccccc2Cl)c(=O)n(-c2ccccc2)n1C | – | inactive: 7.65%
O=S(=O)(c1ccc(Cl)nc1)N(Cc1ccccc1)Cc1ccccc1 | – | inactive: 4.75%
CC(C)NC(=O)N1CC(c2ccccc2)C(c2ccc(Cl)cc2)=N1 (stereo not drawn) | inconclusive: 29.1 µM [falling, single point] | –
Clc1ccc(COn2nnc3ccccc32)c(Cl)c1 | inconclusive: 18.4 µM [activator, partial curve] | –
O=C(COc1ccc(Br)cc1Cl)NC(=O)NC1CCCC1 | inconclusive: 13 µM [activator, partial curve] | –
C=CCN1C(=O)C(Cc2cccc(Cl)c2)S/C1=N/N=C/c1ccco1 (stereo not drawn) | inconclusive: 4.11 µM [falling, full curve, poor fit] | –
O=C(CC(=O)N/N=C\c1cccc(Cl)c1Cl)NCc1ccccc1 | inconclusive: 23.1 µM [falling, single point] | –
O=C(/C=C/c1ccc(Cl)c(Cl)c1)n1cccn1 | inconclusive: 29.1 µM [falling, single point] | –
O=C(c1cc(-c2ccc(Cl)cc2)on1)N1CCCC1 | inconclusive: 29.1 µM [activator, single point] | –
CCOc1ccc(S(=O)(=O)N2CCN(c3cc(Cl)ccc3Cl)CC2)c2ccccc12 | inconclusive: 0.0046 µM [falling, full curve, poor fit] | –
CC(=O)Nc1ncnc2c1c(-c1ccc(Cl)cc1)nn2C(C)(C)C | – | inactive: -28.8%
Cc1cc(C(=O)COC(=O)c2ccc(Cl)c(S(N)(=O)=O)c2)c(C)n1CC1CCCO1 (stereo not drawn) | inconclusive: 13 µM [activator, partial curve] | –
